Source: PMC4074974
Results are given in words; binding and its absence hold for the method and conditions named. In cells and extracts the contact can be indirect. Some results given as binding are weak or reduced against the parent protein; the word gives no strength.

Sequences of proteins named here, by UniProt entry; tags and fusion partners are left off.
UniProt P35226: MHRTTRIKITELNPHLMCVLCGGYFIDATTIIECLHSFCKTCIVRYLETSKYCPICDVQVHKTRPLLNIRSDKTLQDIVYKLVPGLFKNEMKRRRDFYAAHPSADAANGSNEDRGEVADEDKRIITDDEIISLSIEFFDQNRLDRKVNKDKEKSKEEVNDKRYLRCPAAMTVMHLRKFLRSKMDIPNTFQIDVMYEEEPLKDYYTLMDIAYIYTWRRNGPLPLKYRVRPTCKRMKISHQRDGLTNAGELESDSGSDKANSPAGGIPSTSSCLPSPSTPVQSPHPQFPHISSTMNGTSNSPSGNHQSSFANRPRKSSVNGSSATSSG
UniProt Q9UQR0: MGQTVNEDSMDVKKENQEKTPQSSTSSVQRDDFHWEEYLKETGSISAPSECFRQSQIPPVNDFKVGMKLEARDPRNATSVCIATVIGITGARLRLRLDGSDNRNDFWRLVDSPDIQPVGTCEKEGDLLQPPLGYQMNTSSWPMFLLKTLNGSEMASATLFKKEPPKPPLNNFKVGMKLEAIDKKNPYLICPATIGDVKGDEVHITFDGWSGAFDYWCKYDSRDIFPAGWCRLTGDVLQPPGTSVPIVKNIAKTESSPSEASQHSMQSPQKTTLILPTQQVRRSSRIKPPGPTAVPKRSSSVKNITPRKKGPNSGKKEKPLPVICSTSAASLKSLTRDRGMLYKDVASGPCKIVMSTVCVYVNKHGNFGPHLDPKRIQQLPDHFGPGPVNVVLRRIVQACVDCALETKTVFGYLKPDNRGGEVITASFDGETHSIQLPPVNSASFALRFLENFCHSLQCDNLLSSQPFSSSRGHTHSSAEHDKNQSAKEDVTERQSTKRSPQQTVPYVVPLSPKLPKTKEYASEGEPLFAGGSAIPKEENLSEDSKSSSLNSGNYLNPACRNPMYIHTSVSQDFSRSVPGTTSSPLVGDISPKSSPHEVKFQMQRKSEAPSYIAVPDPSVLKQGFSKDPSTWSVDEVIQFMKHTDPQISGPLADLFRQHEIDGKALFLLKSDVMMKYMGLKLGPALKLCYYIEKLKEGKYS

Target: BMI1 (human (endogenous in 293T-REx and HeLa)) (UniProt P35226)
Assay: co-IP; IP of endogenous BMI1 from the chromatin fraction of HeLa cells, blot for SCML2

- binding: binds
Substance: SCML2A (endogenous, chromatin fraction of HeLa cells) (from UniProt Q9UQR0 1-700)
